# Results are given in words; binding and its absence hold for the method and conditions named. In cells and extracts the contact can be indirect. Binding can be weak; no strength is given. Sequences can lack the tags named with a protein.
# Target: T1, Arabidopsis thaliana plasmodesmata-located protein 1 (PDLP1) fused to RFP (Arabidopsis thaliana) (UniProt Q8GXV7)
# T1 sequence: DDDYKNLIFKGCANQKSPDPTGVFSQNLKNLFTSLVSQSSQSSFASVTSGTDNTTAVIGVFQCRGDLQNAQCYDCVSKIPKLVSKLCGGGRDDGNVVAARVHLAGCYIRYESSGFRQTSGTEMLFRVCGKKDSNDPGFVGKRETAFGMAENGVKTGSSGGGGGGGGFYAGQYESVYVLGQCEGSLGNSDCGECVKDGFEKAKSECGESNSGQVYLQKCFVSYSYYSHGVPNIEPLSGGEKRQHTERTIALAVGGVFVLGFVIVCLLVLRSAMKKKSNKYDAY
# Experiment: FRET or BRET; FRET-FLIM: GFP on the MP as donor, RFP on PDLP1 as acceptor; co-expressed by agroinfiltration in N. benthamiana leaves, measured at spots in plasmodesmata; donor fluorescence lifetime by time-correlated single-photon counting
substance,measurement,value
grapevine fanleaf virus (GFLV) 2B movement protein with GFP fused at its N-terminus,binding,binds

# Source: article PMC4987395
